US7070974B1, “Metalloproteases of the neprilysin family” (Universite de Montreal, priority 1999, dated 2006)
At least one compound was matched to its structure with a doubt left. No end group written: not given here.

Target: T1, NL1 (Mus musculus, UniProt Q9JLI3)
T1 sequence (Q9JLI3 63-765 limits assumed): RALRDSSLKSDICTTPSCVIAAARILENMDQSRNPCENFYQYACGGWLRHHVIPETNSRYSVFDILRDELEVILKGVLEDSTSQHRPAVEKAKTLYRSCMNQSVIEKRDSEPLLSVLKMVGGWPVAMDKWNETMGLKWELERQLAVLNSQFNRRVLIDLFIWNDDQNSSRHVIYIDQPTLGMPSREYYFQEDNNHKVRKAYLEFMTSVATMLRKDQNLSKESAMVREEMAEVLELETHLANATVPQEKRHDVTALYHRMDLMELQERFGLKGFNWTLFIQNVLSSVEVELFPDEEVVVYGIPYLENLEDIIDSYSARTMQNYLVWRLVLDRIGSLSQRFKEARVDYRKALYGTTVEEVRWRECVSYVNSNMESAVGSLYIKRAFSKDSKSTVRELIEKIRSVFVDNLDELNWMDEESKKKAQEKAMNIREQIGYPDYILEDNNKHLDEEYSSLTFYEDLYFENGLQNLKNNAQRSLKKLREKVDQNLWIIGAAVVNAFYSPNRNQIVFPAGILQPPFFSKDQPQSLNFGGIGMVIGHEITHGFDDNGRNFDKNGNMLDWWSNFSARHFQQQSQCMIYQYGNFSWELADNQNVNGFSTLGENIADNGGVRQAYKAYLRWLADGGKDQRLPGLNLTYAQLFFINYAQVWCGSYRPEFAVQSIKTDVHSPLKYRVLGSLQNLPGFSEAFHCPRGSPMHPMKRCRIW
Experiment: NL-1 activity assay with bradykinin as substrate
Type: biochemical
Design: The soluble form of NL-1 was assayed for activity; made in house; host or cells: CHO cells (section 1, pcDNA3-RSV) and HEK 293 cells (section 2, pCDNA3/RSV)
Conditions: soluble NL-1; data not shown

RPPGFSPFR [Bradykinin, bradykinin]
substrate for NL-1: substrate
